Assay results published in article PMC13627691.
These are yes or no findings as the source states them, for the method shown. Some binding calls cover weakened binding; strength is not graded here. Where a sequence is shown, tags or fusion partners need not be part of it.

The chains behind the UniProt entries cited, without tags or fusion partners.
UniProt Q2TAZ0: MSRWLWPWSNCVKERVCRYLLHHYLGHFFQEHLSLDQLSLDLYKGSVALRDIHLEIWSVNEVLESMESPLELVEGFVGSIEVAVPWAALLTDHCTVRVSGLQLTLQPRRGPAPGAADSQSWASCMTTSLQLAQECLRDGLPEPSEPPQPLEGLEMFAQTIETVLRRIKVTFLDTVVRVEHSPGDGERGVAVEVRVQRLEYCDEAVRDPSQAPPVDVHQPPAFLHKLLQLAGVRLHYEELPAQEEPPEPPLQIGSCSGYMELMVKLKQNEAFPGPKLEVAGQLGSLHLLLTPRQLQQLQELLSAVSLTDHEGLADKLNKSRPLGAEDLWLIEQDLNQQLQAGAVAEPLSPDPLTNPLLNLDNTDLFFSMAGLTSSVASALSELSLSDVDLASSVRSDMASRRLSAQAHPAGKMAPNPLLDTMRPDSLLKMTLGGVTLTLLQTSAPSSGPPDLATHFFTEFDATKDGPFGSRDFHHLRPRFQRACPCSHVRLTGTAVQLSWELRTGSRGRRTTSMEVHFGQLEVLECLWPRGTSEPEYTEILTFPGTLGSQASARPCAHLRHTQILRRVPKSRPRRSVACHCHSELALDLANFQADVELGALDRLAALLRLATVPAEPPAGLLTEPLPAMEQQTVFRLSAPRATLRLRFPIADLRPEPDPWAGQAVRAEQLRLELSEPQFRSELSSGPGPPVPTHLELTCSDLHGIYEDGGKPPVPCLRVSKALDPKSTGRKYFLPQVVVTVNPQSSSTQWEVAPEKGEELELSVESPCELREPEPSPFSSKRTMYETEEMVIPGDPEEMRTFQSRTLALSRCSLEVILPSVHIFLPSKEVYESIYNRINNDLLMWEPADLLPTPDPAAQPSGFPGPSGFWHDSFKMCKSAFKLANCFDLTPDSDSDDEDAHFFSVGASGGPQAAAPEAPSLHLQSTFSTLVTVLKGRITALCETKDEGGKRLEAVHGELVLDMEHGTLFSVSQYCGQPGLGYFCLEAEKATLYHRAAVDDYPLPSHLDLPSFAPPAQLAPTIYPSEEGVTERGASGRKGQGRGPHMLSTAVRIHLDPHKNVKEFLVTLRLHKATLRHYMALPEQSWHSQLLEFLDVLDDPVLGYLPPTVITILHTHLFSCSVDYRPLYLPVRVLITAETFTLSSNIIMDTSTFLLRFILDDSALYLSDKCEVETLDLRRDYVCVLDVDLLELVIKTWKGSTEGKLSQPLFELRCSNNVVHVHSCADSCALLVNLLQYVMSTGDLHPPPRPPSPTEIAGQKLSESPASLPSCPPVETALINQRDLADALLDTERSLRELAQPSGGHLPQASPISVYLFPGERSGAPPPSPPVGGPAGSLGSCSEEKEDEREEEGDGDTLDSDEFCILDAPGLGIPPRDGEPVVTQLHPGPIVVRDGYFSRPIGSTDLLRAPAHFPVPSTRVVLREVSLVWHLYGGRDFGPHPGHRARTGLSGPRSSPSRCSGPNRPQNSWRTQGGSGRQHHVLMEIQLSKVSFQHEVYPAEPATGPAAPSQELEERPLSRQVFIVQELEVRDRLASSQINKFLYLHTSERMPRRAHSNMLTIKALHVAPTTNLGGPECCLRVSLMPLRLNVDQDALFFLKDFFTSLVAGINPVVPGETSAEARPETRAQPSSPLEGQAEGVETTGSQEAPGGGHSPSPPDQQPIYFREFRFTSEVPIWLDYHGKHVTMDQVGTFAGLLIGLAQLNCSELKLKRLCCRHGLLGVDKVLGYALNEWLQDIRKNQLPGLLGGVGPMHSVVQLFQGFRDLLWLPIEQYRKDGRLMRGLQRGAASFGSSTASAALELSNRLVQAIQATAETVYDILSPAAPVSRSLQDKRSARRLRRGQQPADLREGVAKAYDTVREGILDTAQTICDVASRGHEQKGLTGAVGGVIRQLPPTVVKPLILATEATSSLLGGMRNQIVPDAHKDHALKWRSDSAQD

What was measured:
[1] = biological target: 3xFLAG-tagged ATG2A (3XFLAG-TEV-ATG2A) (not stated (the printed accession is a human entry)) (UniProt Q2TAZ0); assay: pull-down; FLAG trap beads coated with 3xFLAG-ATG2A, 5 µM 6xHIS-tagged prey, 1 h at room temperature, SEC300 (25 mM HEPES pH 7.5, 300 mM NaCl, 1 mM TCEP); low-salt and high-salt (500 mM NaCl wash) fractions; western blot; both purified
[2] = biological target: 3xFLAG-tagged ATG2A (3XFLAG-TEV-ATG2A) (not stated (the printed accession is a human entry)) (UniProt Q2TAZ0); assay: SEC; analytical SEC, Superose 6 Increase 3.2/300, 25 mM HEPES pH 8.0, 300 mM NaCl, 1 mM TCEP; 4 µM 3XFLAG-TEV-ATG2A and 4.8 µM 6XHIS-WIPI4 mixed 2 h on ice; fractions by western blot; both purified

B1: 6xHIS-tagged WIPI4 (protein, UniProt Q9Y484 1-360)
chain: MTQQPLRGVTSLRFNQDQSCFCCAMETGVRIYNVEPLMEKGHLDHEQVGSMGLVEMLHRSNLLALVGGGSSPKFSEISVLIWDDAREGKDSKEKLVLEFTFTKPVLSVRMRHDKIVIVLKNRIYVYSFPDNPRKLFEFDTRDNPKGLCDLCPSLEKQLLVFPGHKCGSLQLVDLASTKPGTSSAPFTINAHQSDIACVSLNQPGTVVASASQKGTLIRLFDTQSKEKLVELRRGTDPATLYCINFSHDSSFLCASSDKGTVHIFALKDTRLNRRSALARVGKVGPMIGQYVDSQWSLASFTVPAESACICAFGRNTSKNVNSVIAICVDGTFHKYVFTPDGNCNREAFDVYLDICDDDDF
[1]
  binding: binds weakly
[2]
  binding: binds weakly
